Results are given in words; binding and its absence hold for the method and conditions named. Binding seen in cells or lysates may run through a third protein. Here binding means that the protein was enriched with, or labelled near, the bait; the list need not be complete.
Biological target: FLAG-tagged GRB7 (growth factor receptor-bound protein 7) (UniProt Q14451)
Assay: affinity purification with mass spectrometry; HCT116 cells expressing FLAG-GRB7 against control cells; anti-FLAG antibody-conjugated beads, precipitates analysed by MS; proteins enriched at least threefold

Chains of the proteins cited; added tags and fusions are not shown.
UniProt P53350: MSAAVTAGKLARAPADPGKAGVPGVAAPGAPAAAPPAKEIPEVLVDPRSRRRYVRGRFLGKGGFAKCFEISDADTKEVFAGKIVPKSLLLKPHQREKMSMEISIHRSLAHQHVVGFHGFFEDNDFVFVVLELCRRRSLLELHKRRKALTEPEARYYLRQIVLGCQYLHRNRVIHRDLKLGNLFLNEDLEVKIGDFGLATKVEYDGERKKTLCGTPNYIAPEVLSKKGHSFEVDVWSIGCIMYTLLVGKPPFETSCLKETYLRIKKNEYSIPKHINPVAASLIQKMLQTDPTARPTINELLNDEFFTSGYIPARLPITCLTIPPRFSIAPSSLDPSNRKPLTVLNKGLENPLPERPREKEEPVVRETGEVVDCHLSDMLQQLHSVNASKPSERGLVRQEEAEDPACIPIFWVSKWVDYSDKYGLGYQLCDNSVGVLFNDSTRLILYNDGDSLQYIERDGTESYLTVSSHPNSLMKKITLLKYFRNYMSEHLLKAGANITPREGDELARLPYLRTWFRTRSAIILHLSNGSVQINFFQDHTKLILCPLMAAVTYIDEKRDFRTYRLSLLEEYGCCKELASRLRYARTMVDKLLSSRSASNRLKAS
UniProt Q8N122: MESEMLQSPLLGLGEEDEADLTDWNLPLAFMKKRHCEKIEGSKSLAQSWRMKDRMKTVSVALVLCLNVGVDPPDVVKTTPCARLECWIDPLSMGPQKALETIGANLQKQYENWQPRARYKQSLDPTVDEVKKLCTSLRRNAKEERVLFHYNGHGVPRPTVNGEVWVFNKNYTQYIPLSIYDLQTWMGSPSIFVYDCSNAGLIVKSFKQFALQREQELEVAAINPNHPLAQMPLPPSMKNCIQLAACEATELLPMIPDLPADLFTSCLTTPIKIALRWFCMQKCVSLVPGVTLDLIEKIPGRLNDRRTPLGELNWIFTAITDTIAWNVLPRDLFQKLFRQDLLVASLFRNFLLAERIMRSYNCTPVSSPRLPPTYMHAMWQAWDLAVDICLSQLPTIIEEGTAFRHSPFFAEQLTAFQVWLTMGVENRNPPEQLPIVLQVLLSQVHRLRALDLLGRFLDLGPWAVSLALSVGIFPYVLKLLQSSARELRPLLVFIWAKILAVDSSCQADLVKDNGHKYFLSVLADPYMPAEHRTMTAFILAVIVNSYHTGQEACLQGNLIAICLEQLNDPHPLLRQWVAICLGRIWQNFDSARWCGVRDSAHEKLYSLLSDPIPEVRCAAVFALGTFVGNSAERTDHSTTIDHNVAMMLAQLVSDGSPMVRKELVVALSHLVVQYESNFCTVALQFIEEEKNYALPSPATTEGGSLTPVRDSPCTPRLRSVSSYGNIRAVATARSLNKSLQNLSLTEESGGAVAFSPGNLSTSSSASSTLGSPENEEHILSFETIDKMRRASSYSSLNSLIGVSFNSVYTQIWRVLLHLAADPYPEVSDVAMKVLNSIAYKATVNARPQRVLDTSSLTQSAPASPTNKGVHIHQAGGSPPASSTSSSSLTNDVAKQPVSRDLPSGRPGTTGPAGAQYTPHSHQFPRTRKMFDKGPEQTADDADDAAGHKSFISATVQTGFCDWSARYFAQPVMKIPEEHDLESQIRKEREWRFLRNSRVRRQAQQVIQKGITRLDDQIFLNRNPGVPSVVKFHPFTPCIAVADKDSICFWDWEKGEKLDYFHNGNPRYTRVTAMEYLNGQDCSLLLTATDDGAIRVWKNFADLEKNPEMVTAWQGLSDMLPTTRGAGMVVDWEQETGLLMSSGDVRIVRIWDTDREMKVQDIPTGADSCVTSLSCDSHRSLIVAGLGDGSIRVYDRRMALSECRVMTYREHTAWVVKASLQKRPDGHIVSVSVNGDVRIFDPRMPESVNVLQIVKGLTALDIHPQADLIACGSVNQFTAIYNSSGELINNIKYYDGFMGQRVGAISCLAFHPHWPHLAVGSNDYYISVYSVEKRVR

| binding | Substance |
| --- | --- |
| binds | polo-like kinase-1 (PLK1) (from UniProt P53350 1-603) (enzyme) |
| binds | regulatory associated protein of mTOR complex 1 (RPTOR) (from UniProt Q8N122 1-1335) |

From article PMC8732282
